The text below walks through data of article doi:10.1101/2022.07.02.497654.

Chains of the proteins cited; added tags and fusions are not shown. Lines headed by an entry give the natural chain unless they say otherwise; changes in a name come on top.
UniProt Q61188: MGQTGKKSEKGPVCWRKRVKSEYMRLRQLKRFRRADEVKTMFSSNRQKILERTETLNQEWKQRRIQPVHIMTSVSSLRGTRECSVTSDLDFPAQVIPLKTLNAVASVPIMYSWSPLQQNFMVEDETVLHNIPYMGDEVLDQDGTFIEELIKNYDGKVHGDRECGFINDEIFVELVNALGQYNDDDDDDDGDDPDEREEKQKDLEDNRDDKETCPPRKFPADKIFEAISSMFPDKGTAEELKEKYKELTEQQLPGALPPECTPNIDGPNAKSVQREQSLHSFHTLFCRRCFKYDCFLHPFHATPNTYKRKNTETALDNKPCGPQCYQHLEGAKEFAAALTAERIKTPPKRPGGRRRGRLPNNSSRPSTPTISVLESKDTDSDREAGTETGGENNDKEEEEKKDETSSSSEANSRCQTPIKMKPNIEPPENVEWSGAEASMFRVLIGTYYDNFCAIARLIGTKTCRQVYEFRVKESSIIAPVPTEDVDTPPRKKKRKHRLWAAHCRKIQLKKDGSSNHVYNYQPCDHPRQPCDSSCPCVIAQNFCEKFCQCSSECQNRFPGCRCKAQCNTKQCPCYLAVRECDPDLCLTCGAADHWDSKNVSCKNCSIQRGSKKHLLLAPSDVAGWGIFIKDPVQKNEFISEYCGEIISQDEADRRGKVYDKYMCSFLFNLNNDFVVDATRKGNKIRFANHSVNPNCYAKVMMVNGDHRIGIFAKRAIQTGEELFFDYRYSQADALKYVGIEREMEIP
UniProt P33242: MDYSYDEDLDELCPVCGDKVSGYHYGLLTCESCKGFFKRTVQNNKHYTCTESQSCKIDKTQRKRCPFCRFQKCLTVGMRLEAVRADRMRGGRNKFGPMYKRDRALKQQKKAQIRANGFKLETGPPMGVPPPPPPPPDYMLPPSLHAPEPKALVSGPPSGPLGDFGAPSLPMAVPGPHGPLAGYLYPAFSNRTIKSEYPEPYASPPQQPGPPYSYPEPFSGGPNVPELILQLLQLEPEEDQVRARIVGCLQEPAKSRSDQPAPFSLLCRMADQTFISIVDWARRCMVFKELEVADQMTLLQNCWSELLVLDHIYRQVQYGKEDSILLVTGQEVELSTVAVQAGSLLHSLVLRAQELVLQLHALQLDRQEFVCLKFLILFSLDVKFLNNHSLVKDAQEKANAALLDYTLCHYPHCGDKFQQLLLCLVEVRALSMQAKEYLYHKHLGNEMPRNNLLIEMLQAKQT
UniProt Q15022: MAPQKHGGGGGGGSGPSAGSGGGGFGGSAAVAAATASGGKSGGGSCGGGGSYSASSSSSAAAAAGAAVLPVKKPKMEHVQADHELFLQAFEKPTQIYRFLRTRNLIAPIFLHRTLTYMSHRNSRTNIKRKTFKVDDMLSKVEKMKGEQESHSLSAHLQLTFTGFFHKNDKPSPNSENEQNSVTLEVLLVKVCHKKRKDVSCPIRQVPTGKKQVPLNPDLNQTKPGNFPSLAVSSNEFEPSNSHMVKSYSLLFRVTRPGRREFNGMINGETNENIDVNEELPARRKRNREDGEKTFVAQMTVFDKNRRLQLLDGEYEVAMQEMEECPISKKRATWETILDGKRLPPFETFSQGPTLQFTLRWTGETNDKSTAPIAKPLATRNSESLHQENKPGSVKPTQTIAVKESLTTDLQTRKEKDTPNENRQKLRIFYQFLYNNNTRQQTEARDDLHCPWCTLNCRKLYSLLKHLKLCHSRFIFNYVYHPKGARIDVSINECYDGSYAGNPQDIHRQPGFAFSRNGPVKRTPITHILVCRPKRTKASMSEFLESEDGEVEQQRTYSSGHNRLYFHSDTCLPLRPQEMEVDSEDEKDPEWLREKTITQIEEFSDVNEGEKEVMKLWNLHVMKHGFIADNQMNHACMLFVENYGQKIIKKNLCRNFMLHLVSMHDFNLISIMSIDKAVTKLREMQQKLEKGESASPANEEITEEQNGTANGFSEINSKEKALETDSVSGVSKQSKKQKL
UniProt Q15910: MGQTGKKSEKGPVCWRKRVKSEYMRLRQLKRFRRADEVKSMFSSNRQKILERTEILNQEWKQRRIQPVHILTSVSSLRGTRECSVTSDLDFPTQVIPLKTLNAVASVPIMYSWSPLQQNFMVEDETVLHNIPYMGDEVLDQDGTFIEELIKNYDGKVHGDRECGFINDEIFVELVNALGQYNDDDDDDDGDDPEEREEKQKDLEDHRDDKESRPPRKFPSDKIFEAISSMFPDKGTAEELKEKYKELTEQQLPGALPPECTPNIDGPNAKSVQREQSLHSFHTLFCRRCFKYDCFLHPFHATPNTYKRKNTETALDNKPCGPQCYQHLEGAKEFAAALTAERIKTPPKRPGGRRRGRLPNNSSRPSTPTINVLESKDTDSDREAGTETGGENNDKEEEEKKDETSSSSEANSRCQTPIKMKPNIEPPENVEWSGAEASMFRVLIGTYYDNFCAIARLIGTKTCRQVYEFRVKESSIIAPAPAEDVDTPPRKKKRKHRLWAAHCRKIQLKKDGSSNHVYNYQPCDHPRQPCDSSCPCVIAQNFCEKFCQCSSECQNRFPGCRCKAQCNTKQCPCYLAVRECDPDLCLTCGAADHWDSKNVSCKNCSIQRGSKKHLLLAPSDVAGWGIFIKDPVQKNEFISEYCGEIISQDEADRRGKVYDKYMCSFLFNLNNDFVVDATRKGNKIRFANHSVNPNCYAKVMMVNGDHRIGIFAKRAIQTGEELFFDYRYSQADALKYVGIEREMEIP
UniProt Q13285: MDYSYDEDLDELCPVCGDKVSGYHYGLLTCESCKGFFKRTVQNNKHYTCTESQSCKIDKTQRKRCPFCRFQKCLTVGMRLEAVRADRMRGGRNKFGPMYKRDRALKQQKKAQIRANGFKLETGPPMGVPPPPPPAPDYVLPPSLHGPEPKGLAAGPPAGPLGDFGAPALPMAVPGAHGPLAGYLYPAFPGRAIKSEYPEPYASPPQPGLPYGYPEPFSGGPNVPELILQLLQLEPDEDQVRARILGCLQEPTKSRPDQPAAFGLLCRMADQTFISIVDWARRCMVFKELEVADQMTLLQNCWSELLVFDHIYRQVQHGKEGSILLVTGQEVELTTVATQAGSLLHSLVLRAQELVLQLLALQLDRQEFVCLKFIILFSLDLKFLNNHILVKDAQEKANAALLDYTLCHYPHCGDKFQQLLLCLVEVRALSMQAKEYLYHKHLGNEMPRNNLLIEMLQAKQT
UniProt Q02248: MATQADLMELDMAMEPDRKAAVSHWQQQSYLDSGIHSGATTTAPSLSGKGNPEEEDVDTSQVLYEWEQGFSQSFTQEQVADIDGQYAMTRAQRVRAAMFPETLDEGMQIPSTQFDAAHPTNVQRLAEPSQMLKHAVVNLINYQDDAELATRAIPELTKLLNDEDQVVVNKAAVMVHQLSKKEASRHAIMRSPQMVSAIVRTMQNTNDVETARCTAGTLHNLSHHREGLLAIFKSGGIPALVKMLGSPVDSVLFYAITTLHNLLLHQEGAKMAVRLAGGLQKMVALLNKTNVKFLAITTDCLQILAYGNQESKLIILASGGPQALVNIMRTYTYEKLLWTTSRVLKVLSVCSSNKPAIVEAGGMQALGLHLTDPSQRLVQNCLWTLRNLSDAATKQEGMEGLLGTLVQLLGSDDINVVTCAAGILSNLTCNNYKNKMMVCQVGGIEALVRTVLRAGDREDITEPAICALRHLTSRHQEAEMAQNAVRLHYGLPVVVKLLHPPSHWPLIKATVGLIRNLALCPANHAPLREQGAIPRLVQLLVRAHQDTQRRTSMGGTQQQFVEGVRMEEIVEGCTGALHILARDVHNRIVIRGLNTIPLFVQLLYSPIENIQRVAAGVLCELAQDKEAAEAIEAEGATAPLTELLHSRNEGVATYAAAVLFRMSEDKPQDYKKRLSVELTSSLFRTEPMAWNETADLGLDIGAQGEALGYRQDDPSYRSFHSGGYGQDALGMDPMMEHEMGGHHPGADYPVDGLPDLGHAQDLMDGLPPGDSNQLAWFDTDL
UniProt P35222: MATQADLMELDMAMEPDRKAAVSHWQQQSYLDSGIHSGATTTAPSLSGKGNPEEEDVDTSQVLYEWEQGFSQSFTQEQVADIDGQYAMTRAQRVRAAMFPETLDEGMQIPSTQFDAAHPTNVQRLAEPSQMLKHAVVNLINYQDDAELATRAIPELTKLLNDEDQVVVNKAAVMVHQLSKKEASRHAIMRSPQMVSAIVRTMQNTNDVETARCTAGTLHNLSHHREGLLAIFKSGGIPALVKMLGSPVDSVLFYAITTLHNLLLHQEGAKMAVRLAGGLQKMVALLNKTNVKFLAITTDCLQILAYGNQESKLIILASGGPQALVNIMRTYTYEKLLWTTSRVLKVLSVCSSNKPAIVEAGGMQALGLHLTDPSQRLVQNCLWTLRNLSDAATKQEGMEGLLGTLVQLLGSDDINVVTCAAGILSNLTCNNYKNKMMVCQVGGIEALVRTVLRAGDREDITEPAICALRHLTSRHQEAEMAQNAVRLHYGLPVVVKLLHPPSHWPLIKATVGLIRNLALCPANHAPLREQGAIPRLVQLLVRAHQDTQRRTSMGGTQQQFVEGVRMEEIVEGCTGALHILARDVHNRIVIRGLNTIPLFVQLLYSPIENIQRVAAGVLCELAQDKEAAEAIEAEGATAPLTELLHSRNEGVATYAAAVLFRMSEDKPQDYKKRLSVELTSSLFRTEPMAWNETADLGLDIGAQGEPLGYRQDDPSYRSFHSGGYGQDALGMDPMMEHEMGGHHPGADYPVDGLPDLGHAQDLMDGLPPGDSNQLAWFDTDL

Results are given in words; binding and its absence hold for the method and conditions named. Binding seen in cells or lysates may run through a third protein. Some binding calls cover weakened binding; strength is not graded here.

Assay [1] deals with EZH2 (mouse) (mouse (endogenous in mouse adrenal)) (UniProt Q61188). The assay is described as follows: proximity ligation.
The target in assay [2] is SF1 (mouse) (mouse (endogenous in mouse adrenal)) (UniProt P33242). As to the kind of experiment: proximity ligation.
Assay [3] deals with SUZ12 (human (endogenous in NCI-H295R)) (UniProt Q15022). The assay is described as follows: co-IP.
Assay [4] concerns the target EZH2 (human (endogenous in NCI-H295R and in human adrenal tissue)) (UniProt Q15910). As to the kind of experiment: co-IP.
Assay [5] concerns the target SF1 (NR5A1) (human (endogenous in NCI-H295R and in human adrenal tissue)) (UniProt Q13285). The assay is described as follows: proximity ligation.
For assay [6], the target named is EZH2 (human (endogenous in NCI-H295R and in human adrenal tissue)) (UniProt Q15910). The assay is described as follows: proximity ligation.

With “β-catenin (mouse) (from UniProt Q02248 1-781)”, the binding entry in assay [1] and in assay [2] was “binds” in each case.

On to “p.S45P β-catenin (from UniProt P35222 1-781)”, for which the binding result in assay [3] is recorded as “no binding”; in assay [4], “binds”.

Turning to “β-catenin (human adrenal tissue) (from UniProt P35222 1-781)”, the binding entry in assay [5] and in assay [6] was “binds” in each case.
